The name of at least one read-out is uncertain.
Test: Blood pressure lowering effect in conscious dog
Type: in vivo, Beagle dog
Settings: measured at a dose of 1.5 mg/kg; effects experimentally not significant (footnote)

Structure (SMILES): CC(C)NCC(O)COc1cccc2ccccc12 (stereo not shown) [Propranolol, propranolol, reference compound]
- Conscious dog Δ BP After i.v. Injection of β Blocking Agent: +5 mm Hg

From patent US4161542A, “Heart active compounds” (priority 1975, dated 1979)
